This list was built around the results that the source calls inconclusive (neither active nor inactive); the mix of calls is not that of the screen. Potencies of inconclusive entries are doubtful fits and often do not repeat. Calls of active or inactive are those of the source. The call rests on the fitted dose curve; in most records, active means well fitted cell-killing curve with a large enough effect; inconclusive means small, poorly fitted or top-dose-only effect, or effect the other way; inactive means no such curve, though single readings can be large or run the other way.
Assay: Quantitative highthroughput screen to assess conditional lethalithy of SEM cells grown in RPMI1640 with unreated serum (RPMI+s) (AID 1963883); further: nearly all actives have a fitted effect of over 35% in size
Conditions: SEM B-ALL cells, CellTiter-Glo viability, 48 h; viability: at 45.8 µM (top of the series)
Description: Assay Provider: Jason Cantor Ph.D.
Department of Biochemistry
University of Wisconsin-Madison, Madison, WI, USA
Chemical screening studies have identified drug sensitivities across hundreds of cancer cell lines but most putative therapeutics fail to translate. Discovery and development of drug candidates in models that more accurately reflect nutrient levels in human blood is a major challenge. Here we performed high-throughput screens in conventional versus Human Plasma-Like Medium (HPLM) to identify compounds that were "missed" when screening using the artificial culture condition. Sets of conditional anticancer compounds spanned phases of clinical development and included non-oncology drugs were assessed. […] We also traced conditional phenotypes for several chemotherapeutics to availability of HPLM-specific metabolites and confirmed others for compounds whose reported targets are encoded by nonessential genes. Our findings establish generalizable strategies for exploiting conditional lethality in HPLM to reveal therapeutic candidates and mechanisms of action in cancer cells.
Described herein are the results of each viability screens against three cell lines: NOMO1 (an acute myeloid leukemia cell line); P12-Ichikawa (a T-cell acute lymphoblastic leukemia); and SEM (a B-cell ALL). Each assay was screened using 3 different cell culture media: homemade human plasma-Like medium with 10% dialyzed fetal bovine serum (HPLM+ds); RPMI1640 with 10% untreated FBS and 5mM glucose (RPMI+s); and RPMI1640 with 10% dialyzed fetal bovine serum and 5 mM glucose (RPMI+ds).
PROTOCOL TABLE (as described by Inglese J, Shamu CE and Guy RK. 2007)
SEQUENCE No. (e.g., 1, 2, 3, etc.); […] (e.g., Cells, Incubation, Reagent, etc.); VALUE and DESCRIPTION.
1; Cells; 5 uL; white, solid bottom 1536-well Greiner assay plate.
2; Compounds; 23 nL; Kalypsis pin tool (Wako USA) equipped with a 1536-well pin head to transfer to the assay plates.
3; Incubation; 48 hours; 37C incubation.
4; Reagent; 3 uL; CellTiter Glo (Promega).
5; Incubation; 5 min, room temperature
6; Detection; Luminescence, Viewlux PerkinElmer.
NOTES (numbers refer to Sequence numbers above)
1. Briefly, 5 ul of cell reagent was dispensed using a Multidrop Combi Dispenser. The NOMO1 and SEM cells were plated at 500 cells/well and the P12-Ichikawa line at 1000 cells/well.
2. After seeding the cells, 23 nL of MIPE 4.1 library compounds (in DMSO) were added to each plate using a Kalypsys 1536 Pintool dispenser. Bortezomib at final concentration of […] and DMSO were added to each plate as positive and negative controls respectively. For each screen, MIPE 4.1 compounds were added over an eleven-point concentration range […] in 3-fold dilutions.
3. Each plate was covered with a stainless steel gasketed lid to prevent evaporation and incubated for 48 hour at 37C, 95% relative humidity, and 5% CO2.
4-5. Three microliter CellTilter-GloTM luminescent substrate mix (Promega) reagent was added to the assay plate and incubated at room temperature for 5 min.
6. The luminescence signal was measured using a ViewLux (PerkinElmer) multiplate reader with a 2 second exposure time per plate. Data for each compound were normalized as percent viability such that measurements for DMSO and the empty well controls in each plate were defined as 100% and 0%, respectively.
In the case of `CCn1c(-c2nonc2N)nc2cncc(CNC3CCNCC3)c21`, the Potency is reported as active: 2.35 µM. In the case of `CC(=O)O[C@]1(C(C)=O)CC[C@H]2[C@@H]3C=C(C)C4=CC(=O)CC[C@]4(C)[C@@H]3CC[C@@]21C`, the “viability” value is reported as inactive: 101%. In the case of `CC1(C)S[C@H]2[C@H](NC(=O)[C@@H](N)c3ccc(O)cc3)C(=O)N2[C@@H]1C(=O)O`, the Potency is reported as inconclusive: 14.8 µM [cytotoxic, partial curve]. In the case of `Nc1[nH]c(=O)ncc1F`, the “viability” value is reported as inactive: 96.9%. For `NS(=O)(=O)c1cc2c(cc1Cl)NC(C(Cl)Cl)NS2(=O)=O` (stereo not given), the “viability” value was inactive: 96.2%. With `Cc1c(C(=O)NN2CCCCC2)nn(-c2ccc(Cl)cc2Cl)c1-c1ccc(Cl)cc1` the “viability” value was inactive: 81.8%. With `CCCN[C@H]1CCc2nc(N)sc2C1` the “viability” value was inactive: 101%. For `Cn1cc(C=C2C(=O)Nc3cccnc32)c2ccccc21`, the Potency was inconclusive: 9.35 µM [cytotoxic, full curve]. In the case of `COc1cc([C@@H](CC(=O)O)c2ccc(C)c(CN3C[C@@H](C)Oc4ccccc4S3(=O)=O)c2)cc2nnn(C)c12`, the Potency is reported as inconclusive: 8.31 µM [cytotoxic, partial curve]. In the case of `Cc1ncc([N+](=O)[O-])n1CCO`, the “viability” value is reported as inactive: 91.3%. For `Cn1cncc1[C@@](N)(c1ccc(Cl)cc1)c1ccc2c(c1)c(-c1cccc(Cl)c1)cc(=O)n2C`, the Potency was inconclusive: 0.059 µM [cytotoxic, full curve]. For `C[C@H](NCc1ccc2c(c1)nc(NC(=O)c1ccc(-c3cn[nH]c3)s1)n2CCc1ccccc1)C(C)(C)C`, the Potency was active: 0.526 µM. In the case of `Cc1cccc(-c2nn(C(=S)Nc3ccccc3)cc2-c2ccnc3ccccc23)n1`, the Potency is reported as inconclusive: 33.2 µM [cytotoxic, single point]. In the case of `Nc1ncnc2c1ncn2[C@@H]1O[C@@H](CO)[C@H](O)[C@H]1O`, the Potency is reported as inconclusive: 14.8 µM [cytotoxic, single point]. For `Nc1nc(N)nc(-c2cc(Cl)ccc2Cl)n1`, the Potency was inconclusive: 23.5 µM [cytotoxic, single point]. With `CN1CCN(CCCN2c3ccccc3Sc3ccc(C(F)(F)F)cc32)CC1` the “viability” value was inactive: 99.4%. With `CN(C)C(=N)N=C(N)N` the Potency was inconclusive: 4.18 µM [cytotoxic, partial curve]. With `O=C(O)c1nc(=O)[nH]c(=O)[nH]1` the “viability” value was inactive: 93.7% [at 23.2 µM]. For `CC1(C)CCC[C@@]2(C)[C@@H]1CC[C@@]1(C)OC(=O)C[C@H]21`, the “viability” value was inactive: 107%. With `CC[C@]1(O)C[C@H]2CN(CCc3c([nH]c4ccccc34)[C@@](C(=O)OC)(c3cc4c(cc3OC)N(C=O)[C@H]3[C@@](O)(C(=O)OC)[C@H](OC(C)=O)[C@]5(CC)C=CCN6CC[C@]43[C@@H]65)C2)C1` the Potency was inconclusive: 0.0209 µM [cytotoxic, full curve]. With `CC(=O)CC(c1ccccc1)c1c(O)c2ccccc2oc1=O` (stereo not given) the “viability” value was inactive: 119%. In the case of `COc1cc(CCc2cc(NC(=O)c3ccc(N4C[C@@H](C)N[C@@H](C)C4)cc3)n[nH]2)cc(OC)c1`, the Potency is reported as active: 4.69 µM. With `CC(C)(C)NC(=O)[C@H]1CN(Cc2cccnc2)CCN1C[C@@H](O)C[C@@H](Cc1ccccc1)C(=O)N[C@H]1c2ccccc2C[C@H]1O` the Potency was inconclusive: 29.6 µM [cytotoxic, partial curve]. For `Cc1ccccc1-n1c(Cn2nc(-c3cccc(O)c3)c3c(N)ncnc32)nc2cccc(C)c2c1=O`, the “viability” value was inactive: 79.8%. For `COc1cc(F)c(C(C)C)cc1-c1ccc(C(F)(F)F)cc1CN1C(=O)O[C@H](c2cc(C(F)(F)F)cc(C(F)(F)F)c2)[C@@H]1C`, the “viability” value was inactive: 67.6%. With `COc1cc([C@@H]2c3cc4c(cc3[C@@H](O[C@@H]3O[C@@H]5CO[C@@H](c6cccs6)O[C@@H]5[C@H](O)[C@@H]3O)[C@H]3COC(=O)[C@H]23)OCO4)cc(OC)c1O` the Potency was inconclusive: 0.743 µM [cytotoxic, full curve, poor fit]. For `N#CC1(c2ccc(NC(=O)c3cccnc3NCc3ccncc3)cc2)CCCC1`, the “viability” value was inactive: 72.5%. For `O=C(C1CC1)N1CC[C@@H](Cn2c(-c3ccc(-c4ccc5occc5c4)cc3)nc3cnccc32)C1`, the “viability” value was inactive: 85.4%. In the case of `Cc1cc(Cl)ccc1OCCCC(=O)NO`, the Potency is reported as active: 10.5 µM. In the case of `CCCc1nc(C(C)(C)O)c(C(=O)O)n1Cc1ccc(-c2ccccc2-c2nn[nH]n2)cc1`, the “viability” value is reported as inactive: 73.8%. With `O=C1NC(=O)C(c2cnc3ccccn23)=C1c1cn2c3c(cccc13)CN(C(=O)N1CCOCC1)CC2` the Potency was inconclusive: 0.0074 µM [cytotoxic, full curve]. In the case of `CCCc1cc(C(N)=S)ccn1`, the “viability” value is reported as inactive: 110%. With `O=C(Nc1ccccc1-c1cn2c(CN3CCNCC3)csc2n1)c1cnc2ccccc2n1` the Potency was active: 18.7 µM. With `Cn1c2cc(S(C)=O)sc2c2cnn(Cc3cccc(N)c3)c(=O)c21` (stereo not given) the Potency was inconclusive: 18.7 µM [cytotoxic, partial curve]. In the case of `CN(NC(=O)CC(=O)NN(C)C(=S)c1ccccc1)C(=S)c1ccccc1`, the Potency is reported as active: 0.0417 µM. With `CCCCc1oc2ccc(NS(C)(=O)=O)cc2c1C(=O)c1ccc(OCCCN(CCCC)CCCC)cc1` the Potency was inconclusive: 33.2 µM [cytotoxic, single point]. In the case of `NC1CCC(Nc2nc(Nc3ccc(C(=O)N4CCCCC4)cc3)c3ncn(-c4cccc(F)c4)c3n2)CC1` (stereo not given), the “viability” value is reported as inactive: 79.5%. With `CC(=O)c1cnc2ccc(-c3cc(Cl)c(O)c(Cl)c3)nc2c1NC1CCC(CN(C)C)CC1` (stereo not given) the Potency was active: 0.0741 µM. In the case of `NCc1ccc(OCCCc2sc(-c3ccc4c(c3)/C(=N/Nc3nc5ccccc5s3)CCC4)nc2C(=O)O)cc1`, the Potency is reported as inconclusive: 0.0021 µM [cytotoxic, full curve]. In the case of `Nc1ccn(C[C@@H](CO)OCP(=O)(O)O)c(=O)n1`, the Potency is reported as inconclusive: 14.4 µM [cytotoxic, single point].

From PubChem BioAssay (NCATS)
Potency means the concentration at half of the fitted maximal effect.
